These are yes or no findings as the source states them, for the method shown. Binding seen in cells or lysates may run through a third protein. These calls come from enrichment with a bait or labelling near it, and not all partners need be listed. Tags and fused reporters may be left off the sequences shown.
T1: Ino1-RFP (Dictyostelium inositol-3-phosphate synthase with a C-terminal RFP tag) (Dictyostelium discoideum) (UniProt Q54N49)
T1 sequence: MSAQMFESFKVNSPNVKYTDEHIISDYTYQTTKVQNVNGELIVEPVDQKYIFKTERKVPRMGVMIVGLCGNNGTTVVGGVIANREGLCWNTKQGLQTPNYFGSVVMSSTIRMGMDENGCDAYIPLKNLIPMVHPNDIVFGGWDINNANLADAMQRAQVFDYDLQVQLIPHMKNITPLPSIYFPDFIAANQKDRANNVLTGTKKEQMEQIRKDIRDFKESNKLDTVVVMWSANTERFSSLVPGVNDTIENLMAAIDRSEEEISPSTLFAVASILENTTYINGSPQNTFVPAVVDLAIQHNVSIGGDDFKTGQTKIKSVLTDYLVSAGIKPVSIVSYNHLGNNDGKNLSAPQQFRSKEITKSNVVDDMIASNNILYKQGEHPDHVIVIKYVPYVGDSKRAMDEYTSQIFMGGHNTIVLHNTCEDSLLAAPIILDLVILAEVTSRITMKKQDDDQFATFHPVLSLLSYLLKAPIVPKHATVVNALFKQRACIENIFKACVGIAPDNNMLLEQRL

Amino acid sequences for entries named in this document (tags omitted). A change or cut given only in a name is not applied to a line headed by its entry.
UniProt Q54IX5: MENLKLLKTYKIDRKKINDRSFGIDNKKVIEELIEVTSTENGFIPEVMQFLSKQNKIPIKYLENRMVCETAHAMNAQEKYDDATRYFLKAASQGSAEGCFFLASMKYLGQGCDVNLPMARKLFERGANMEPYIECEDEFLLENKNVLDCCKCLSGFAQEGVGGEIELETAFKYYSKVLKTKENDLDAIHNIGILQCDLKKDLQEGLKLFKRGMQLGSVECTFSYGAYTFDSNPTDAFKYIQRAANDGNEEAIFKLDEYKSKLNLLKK
UniProt P54647: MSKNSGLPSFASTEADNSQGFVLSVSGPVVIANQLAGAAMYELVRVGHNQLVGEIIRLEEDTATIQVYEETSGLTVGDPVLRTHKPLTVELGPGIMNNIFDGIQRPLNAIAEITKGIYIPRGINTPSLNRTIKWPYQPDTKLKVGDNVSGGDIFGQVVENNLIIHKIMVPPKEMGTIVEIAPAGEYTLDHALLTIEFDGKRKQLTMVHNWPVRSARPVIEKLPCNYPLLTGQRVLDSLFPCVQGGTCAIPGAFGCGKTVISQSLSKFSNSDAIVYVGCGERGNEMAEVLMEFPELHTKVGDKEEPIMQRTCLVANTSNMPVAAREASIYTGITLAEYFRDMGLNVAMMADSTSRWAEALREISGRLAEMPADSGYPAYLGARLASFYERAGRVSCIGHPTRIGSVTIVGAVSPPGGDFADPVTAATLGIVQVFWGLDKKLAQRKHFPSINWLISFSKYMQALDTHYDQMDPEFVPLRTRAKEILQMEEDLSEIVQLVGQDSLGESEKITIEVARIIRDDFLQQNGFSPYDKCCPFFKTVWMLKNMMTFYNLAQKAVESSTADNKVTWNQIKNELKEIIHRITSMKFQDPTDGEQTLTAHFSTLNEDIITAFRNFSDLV


The molecules below were run against T1, Ino1-RFP (Dictyostelium inositol-3-phosphate synthase with a C-terminal RFP tag) (Dictyostelium discoideum) (assay: affinity purification with mass spectrometry; Ino1-RFP from ino1- cell lysate held on RFP-Trap agarose beads (1 h, 4°C; lysis 0.5% NP-40, 40 mM Tris-HCl, 20 mM NaCl); SDS-PAGE, Coomassie bands specific to Ino1-RFP and absent in the RFP-only or AX2 control analysed by mass spectrometry; three independent experiments).

Row | binding | Molecule
1 | binds | Q54IX5 (endogenous) (from UniProt Q54IX5)
2 | binds | V-type proton ATPase catalytic subunit A (from UniProt P54647 1-618)
3 | binds | GpmA (endogenous) (enzyme, UniProt Q54NE6 1-249) MVYKLVLIRHGESTWNKENKFTGWTDVDLSEKGVQEAHEAGKRLLKAGFTFDIAYTSVLKRAIRTLWILLEELNLYWIPVSRQWRLNERMYGSLQGLNKSETAAKYGEDQVLIWRRSYDIPPPALEESDERYPGNDPRYAKLDKSDLPKTECLKDTVERFLPLWNDTIAPTIKSGQKVLIAAHGNSIRALVKYLDNIADDKIVSMDIPTGIPLVYELDENLKPIKHYYLADESELNAAIQAVANQGKAK
4 | binds | PefB (endogenous) (protein, UniProt Q95YL4 1-205) MYGYGYTPAVVAPTVMSFSFVPPQAFQQCWFYSLYTQIQQAQLYEMQSWFMRVDANRSGTISSGELQYLNIGGTPLGIETATKLIKVFDHNKNGQIDFYEYAALHQFINNLYRCFVANDRNFSGTIDANEIYNALITSGFQLPFPTVNYLFLKLSPSGYGLLFTQFLNLCATVALTRSLFEWNDPMRTGVVHLNLAQLYDIIALV

Reference: paper PMC4859692
